The results in this text go back to patent US11215619B2 (priority 2019, dated 2022).

Molecules are shown by their SMILES.

Series [1] relates to OTABA. As to the kind of experiment: Fluorescent titration of dye binding to OTABA. The conditions noted are these: for Irel (B/F): fold increase in emission, 6 μM dye, 1.5 equiv. OTABA; for Irel dyes: intensity ratio ThT:4QI:BtC, 1 μM dye bound to 0.5 μM OTABA. As to the method: Dye interaction with OTABA and subsequent displacement by OTA was initially investigated using fluorescence spectroscopy (FIG. 17) in the previously optimized OTA binding buffer. (Fadock et al., 2017) Additions of OTABA (up to 1.5 equiv.) to the dye (6 μM) caused dose-dependent increases in ligand emission at 488 nm for ThT (240-fold increase at 1.5 equiv. OTABA, FIG. 17a), 605 nm for the 4QI (42-fold, FIG. 17b) and 640 nm for BtC (8-fold, FIG. 17c).

Series [2] has as its system OTABA. Kind of series: CD titrations of dye binding to OTABA and dye displacement by OTA. The series is classed as physicochemical.
A short description of series [3]: Solvatochromic studies of 4QI. The series is classed as physicochemical. The conditions noted are these: Irel = I4QI in solvent/I4QI in H2O. As to the method: All fluorescence excitation and emission measurements were made at 25.00° C. using a PTI Alphascan-2 spectrofluorometer equipped with a 1×4 Multicell Block Peltier and temperature controller, with baseline correction and variable slit widths as specified. All fluorescence excitation spectra were recorded at the maximum emission wavelength of the fluorophore and emission spectra were recorded at the maximum excitation wavelength.
Solvatochromatic studies were completed using quartz cells (Hellma 101-QS) with a light path of 10 mm. A 100 μM stock solution of 4QI was prepared in reagent grade DMSO. Using the stock solution, 3 μM solutions of 4QI were prepared in a series of solvents: MQ water, methanol, acetonitrile, THF, chloroform and isopropyl alcohol. After mixing by inversion (×20), emission and excitation spectra for each sample were recorded as described using slit widths of 5 nm.

Turning to `CCN(CC)c1ccc2cc(/C=C/c3sc4ccccc4[n+]3C)c(=O)oc2c1` [BtC], in the series on OTABA [1], the “Irel (B/F)” value came to 8 and the Irel dyes is recorded as 15. Further, the GQ topology entry with OTABA [2] (after dye displacement by OTA) is “antiparallel”. The GQ topology entry with OTABA [2] (dye bound to OTABA) is recorded as “hybrid”.
As for `C[n+]1ccc(/C=C/c2cn(CCCO)c3ccccc23)c2ccccc21.[I-]` [4QI, 4-(2-(1-(3-hydroxypropyl)-1H-indol-3-yl)vinyl)-1-methylquinolin-1-ium iodide], the Irel in series [3] (Acetonitrile) is 3.6; in series [3] (H2O) it was 1.0; in series [3] (Isopropyl-alcohol), 28.3; in series [3] (Methanol), 5.2; in series [3] (THF), 23.9. Further, in the series with OTABA [1], the “Irel (B/F)” value came to 42. In addition, in the series on OTABA [1], the Irel dyes came to 5.6. Also, the GQ topology result in the series on OTABA [2] (after dye displacement by OTA) and with OTABA [2] (dye bound to OTABA) was “parallel” each time.
Consider `Cc1ccc2c(c1)sc(-c1ccc(N(C)C)cc1)[n+]2C` [ThT, Thioflavin T], for which, in the series on OTABA [1], the “Irel (B/F)” value worked out at 240 and the Irel dyes was found to be 1. For the same compound, the GQ topology entry with OTABA [2] (after dye displacement by OTA) is listed as “antiparallel”. Moreover, the GQ topology entry with OTABA [2] (dye bound to OTABA) is given as “antiparallel”.
